# Data: the supplement of paper PMC4635364
# Where a name gives a salt, the structure may show the parent alone. Some of the results follow. Repeats in this data set agree poorly, so a single value says little.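 Cells: ReNCell VM human fetal ventral-midbrain neural progenitors, differentiated mitogen-free. Blinded raters compared doublecortin-stained (early neurons) or tyrosine hydroxylase-stained (dopaminergic neurons) images with untreated wells, where 0 means no change. After repeats and both raters were averaged, compounds scoring 2 or above became hits for retesting.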
# Assays:
# ReNCell VM [1] = assay: neuronal differentiation score (DCX+ cell fraction vs untreated, manual image score) (score (-3 to 3)); higher = more neuronal differentiation; settings: 2 uM, 2 weeks
# ReNCell VM [2] = assay: dopaminergic neuron differentiation score (TH+ cell fraction vs untreated, manual image score) (score (0 to 3)); higher = more TH+ dopaminergic neuron differentiation; settings: 2 uM, 4 weeks, BDNF 10 ng/ml + GDNF 10 ng/ml
smiles,measurement,setting,value
N#Cc1cc2nc(O)c(O)nc2cc1[N+](=O)[O-] [CNQX disodium salt],neuronal differentiation score,ReNCell VM [1]; library: Tocriscreen,inactive: 0
same,dopaminergic neuron differentiation score,ReNCell VM [2]; library: Tocriscreen,inactive: 1
COC(=O)C1=C(C)NC(C)=C(C(=O)OCC(C)C)C1c1ccccc1[N+](=O)[O-] (centres undefined) [Nisoldipine],neuronal differentiation score,ReNCell VM [1]; library: Prestwick,inactive: 0
same,dopaminergic neuron differentiation score,ReNCell VM [2]; library: Prestwick,inactive: 0
C[n+]1cccc(C(=O)[O-])c1 [Trigonelline hydrochloride],neuronal differentiation score,ReNCell VM [1]; library: Phytochemical,inactive: 0
same,dopaminergic neuron differentiation score,ReNCell VM [2]; library: Phytochemical,inactive: 0
CN1CCN2c3ncccc3Cc3ccccc3C2C1 (centres undefined) [Mirtazepine],neuronal differentiation score,ReNCell VM [1]; library: Tocriscreen,inactive: 0
same,dopaminergic neuron differentiation score,ReNCell VM [2]; library: Tocriscreen,inactive: 0
O=C1CC[C@]23/C=C/C(=O)NCCCCNCCCNC(=O)/C=C/c4ccc(c2c4)O[C@@H]3C1,neuronal differentiation score,ReNCell VM [1]; library: Spectrum,inactive: 0
same,dopaminergic neuron differentiation score,ReNCell VM [2]; library: Spectrum,inactive: 0
CC(C)NCC(O)c1ccc2ccccc2c1 (centres undefined),neuronal differentiation score,ReNCell VM [1]; library: Spectrum,inactive: 0
same,dopaminergic neuron differentiation score,ReNCell VM [2]; library: Spectrum,inactive: 0
O=C(C1CCCCC1)N1CC(=O)N2CCc3ccccc3C2C1 (centres undefined),neuronal differentiation score,ReNCell VM [1]; library: Spectrum,inactive: 0
same,dopaminergic neuron differentiation score,ReNCell VM [2]; library: Spectrum,inactive: 1
CC(=O)N1CCN(c2ccc(OCC3COC(Cn4ccnc4)(c4ccc(Cl)cc4Cl)O3)cc2)CC1 (centres undefined),neuronal differentiation score,ReNCell VM [1]; library: Spectrum,inactive: 0
same,dopaminergic neuron differentiation score,ReNCell VM [2]; library: Spectrum,inactive: 0
Oc1cc2c(cc1O)C1c3ccc(O)c(O)c3OCC1(O)C2 (centres undefined),neuronal differentiation score,ReNCell VM [1]; library: Spectrum,inactive: 0
same,dopaminergic neuron differentiation score,ReNCell VM [2]; library: Spectrum,inactive: 0
CC1(C)S[C@@H]2[C@H](NC(=O)[C@H](C(=O)O)c3ccsc3)C(=O)N2[C@H]1C(=O)O,neuronal differentiation score,ReNCell VM [1]; library: Spectrum,inactive: 0
same,dopaminergic neuron differentiation score,ReNCell VM [2]; library: Spectrum,inactive: 0
CCCCOc1ccc(C(=O)CCN2CCCCC2)cc1 [Dyclonine hydrochloride],neuronal differentiation score,ReNCell VM [1]; library: Prestwick,inactive: 0
same,dopaminergic neuron differentiation score,ReNCell VM [2]; library: Prestwick,inactive: 1
Cc1cc(C)cc(OCC2CNC(=O)O2)c1 (centres undefined),neuronal differentiation score,ReNCell VM [1]; library: Spectrum,inactive: 0
same,dopaminergic neuron differentiation score,ReNCell VM [2]; library: Spectrum,inactive: 1
CC(=O)Nc1ccc(S(=O)(=O)Nc2ccc([N+](=O)[O-])cc2)cc1,neuronal differentiation score,ReNCell VM [1]; library: Spectrum,inactive: 0
same,dopaminergic neuron differentiation score,ReNCell VM [2]; library: Spectrum,inactive: 0
CN1CCN(C2=Cc3ccccc3Oc3ccc(Cl)cc32)CC1,neuronal differentiation score,ReNCell VM [1]; library: Tocriscreen,inactive: 0
same,dopaminergic neuron differentiation score,ReNCell VM [2]; library: Tocriscreen,inactive: 0
CC[C@@H]1C(=O)OC[C@@H]1Cc1cncn1C,neuronal differentiation score,ReNCell VM [1]; library: Spectrum,inactive: 0
same,dopaminergic neuron differentiation score,ReNCell VM [2]; library: Spectrum,inactive: 0
Cc1cc2c(cc1S(N)(=O)=O)S(=O)(=O)CCC2,neuronal differentiation score,ReNCell VM [1]; library: Spectrum,inactive: 0
same,dopaminergic neuron differentiation score,ReNCell VM [2]; library: Spectrum,inactive: 0
N#Cc1ccccc1OCC(O)CNCCNC(=O)Nc1ccccc1 (centres undefined),neuronal differentiation score,ReNCell VM [1]; library: Tocriscreen,inactive: 0
same,dopaminergic neuron differentiation score,ReNCell VM [2]; library: Tocriscreen,inactive: 0
CC[C@H](C)C(=O)O[C@H]1CCC=C2C=C[C@H](C)[C@H](CC[C@@H]3C[C@@H](O)CC(=O)O3)[C@H]21,neuronal differentiation score,ReNCell VM [1]; library: Spectrum,active: 2
same,dopaminergic neuron differentiation score,ReNCell VM [2]; library: Spectrum,inactive: 0
C[N+](C)(C)CCO.[Br-] [Choline bromide],neuronal differentiation score,ReNCell VM [1]; library: LOPAC,inactive: -1
same,dopaminergic neuron differentiation score,ReNCell VM [2]; library: LOPAC,inactive: 0
CC(=Nc1ccccc1N)c1c(C)cc(=O)n(O)c1O,neuronal differentiation score,ReNCell VM [1]; library: Tocriscreen,inactive: 0
same,dopaminergic neuron differentiation score,ReNCell VM [2]; library: Tocriscreen,inactive: 0
CN(C)CCOC1=Cc2ccccc2Sc2ccc(Cl)cc21 [Zotepine],neuronal differentiation score,ReNCell VM [1]; library: Prestwick,inactive: 0
same,dopaminergic neuron differentiation score,ReNCell VM [2]; library: Prestwick,inactive: 0
COc1ccc(-c2ccc(=N)n(CCCC(=O)O)n2)cc1 [Gabazine bromide],neuronal differentiation score,ReNCell VM [1]; library: Prestwick,inactive: 0
same,dopaminergic neuron differentiation score,ReNCell VM [2]; library: Prestwick,inactive: 0
COc1ccc(OC)c2c(=S)c3ccccc3[nH]c12,neuronal differentiation score,ReNCell VM [1]; library: Tocriscreen,inactive: 0
same,dopaminergic neuron differentiation score,ReNCell VM [2]; library: Tocriscreen,inactive: 0
C[C@H](CCC(=O)O)[C@H]1CC[C@H]2[C@@H]3[C@@H](O)C[C@@H]4C[C@H](O)CC[C@]4(C)[C@H]3CC[C@]12C [Urosiol],neuronal differentiation score,ReNCell VM [1]; library: Prestwick,inactive: 0
same,dopaminergic neuron differentiation score,ReNCell VM [2]; library: Prestwick,inactive: 0
Nc1ncnc2c1ncn2[C@@H]1O[C@H](COP(=O)(O)O)[C@@H](O)[C@H]1O,neuronal differentiation score,ReNCell VM [1]; library: Spectrum,inactive: 0
same,dopaminergic neuron differentiation score,ReNCell VM [2]; library: Spectrum,inactive: 0
CNS(=O)(=O)Cc1ccc2[nH]cc(CCN(C)C)c2c1,neuronal differentiation score,ReNCell VM [1]; library: Spectrum,inactive: 0
same,dopaminergic neuron differentiation score,ReNCell VM [2]; library: Spectrum,inactive: 0
NCCC(=O)NCCc1c[nH]cn1 [Carcinine],neuronal differentiation score,ReNCell VM [1]; library: Phytochemical,inactive: 0
same,dopaminergic neuron differentiation score,ReNCell VM [2]; library: Phytochemical,inactive: 0
CCOC(=O)[C@H](CCc1ccccc1)N[C@H]1CCc2ccccc2N(CC(=O)O)C1=O,neuronal differentiation score,ReNCell VM [1]; library: Spectrum,inactive: 0
same,dopaminergic neuron differentiation score,ReNCell VM [2]; library: Spectrum,inactive: 0
CN1C2CCCC1CC(NC(=O)c1nn(C)c3ccccc13)C2 (centres undefined) [Granisetron],neuronal differentiation score,ReNCell VM [1]; library: Prestwick,inactive: 0
same,dopaminergic neuron differentiation score,ReNCell VM [2]; library: Prestwick,inactive: 0
Cc1ccc(C)c(OCCCC(C)(C)C(=O)O)c1,neuronal differentiation score,ReNCell VM [1]; library: Spectrum,inactive: 1
same,dopaminergic neuron differentiation score,ReNCell VM [2]; library: Spectrum,inactive: 0
COCC1=C(C(=O)OC(C)OC(=O)OC(C)C)N2C(=O)[C@@H](NC(=O)/C(=N\OC)c3csc(N)n3)[C@H]2SC1 (some centres undefined),neuronal differentiation score,ReNCell VM [1]; library: Spectrum,inactive: 0
same,dopaminergic neuron differentiation score,ReNCell VM [2]; library: Spectrum,inactive: 0
CCCOc1cc(N)ccc1C(=O)OCCN(CC)CC,neuronal differentiation score,ReNCell VM [1]; library: Spectrum,inactive: 0
same,dopaminergic neuron differentiation score,ReNCell VM [2]; library: Spectrum,inactive: 0
COc1cc(/C=C(\C#N)C(=O)c2ccc(O)c(O)c2)cc(I)c1O [I-OMe-Tyrphostin AG 538],neuronal differentiation score,ReNCell VM [1]; library: LOPAC,inactive: 0
same,dopaminergic neuron differentiation score,ReNCell VM [2]; library: LOPAC,inactive: 0
COC(=O)CCc1ccc(OCC(O)CNC(C)C)cc1 (centres undefined) [Esmolol hydrochloride],neuronal differentiation score,ReNCell VM [1]; library: Prestwick,inactive: 0
same,dopaminergic neuron differentiation score,ReNCell VM [2]; library: Prestwick,inactive: 0
Cc1cc(O)c2c(O)c3c(O)cccc3cc2c1,neuronal differentiation score,ReNCell VM [1]; library: Spectrum,inactive: 0
same,dopaminergic neuron differentiation score,ReNCell VM [2]; library: Spectrum,inactive: 0
COc1ccc(C(=O)c2ccc(O)cc2)c(O)c1O,neuronal differentiation score,ReNCell VM [1]; library: Spectrum,inactive: 0
same,dopaminergic neuron differentiation score,ReNCell VM [2]; library: Spectrum,inactive: 0
Cc1cc(C(=O)NNCc2ccccc2)no1 [Isocarboxazid],neuronal differentiation score,ReNCell VM [1]; library: Prestwick,inactive: 0
same,dopaminergic neuron differentiation score,ReNCell VM [2]; library: Prestwick,inactive: 0

# Reformatted: results already given
smiles	measurement	setting	value
CC(=O)Nc1ccc(S(=O)(=O)Nc2ccc([N+](=O)[O-])cc2)cc1	neuronal differentiation score	ReNCell VM [1]; library: Spectrum	inactive: 0
Cc1cc2c(cc1S(N)(=O)=O)S(=O)(=O)CCC2	neuronal differentiation score	ReNCell VM [1]; library: Spectrum	inactive: 0
N#Cc1ccccc1OCC(O)CNCCNC(=O)Nc1ccccc1 (centres undefined)	dopaminergic neuron differentiation score	ReNCell VM [2]; library: Tocriscreen	inactive: 0
C[C@H](CCC(=O)O)[C@H]1CC[C@H]2[C@@H]3[C@@H](O)C[C@@H]4C[C@H](O)CC[C@]4(C)[C@H]3CC[C@]12C [Urosiol]	neuronal differentiation score	ReNCell VM [1]; library: Prestwick	inactive: 0
CCCOc1cc(N)ccc1C(=O)OCCN(CC)CC	dopaminergic neuron differentiation score	ReNCell VM [2]; library: Spectrum	inactive: 0
